According to paper PMC8786823, “Flanking sequences influence the activity of TET1 and TET2 methylcytosine dioxygenases and affect genomic 5hmC patterns”:

Target: T1, UHRF2 SRA domain (human) (UniProt Q96PU4)
T1 sequence (looked up): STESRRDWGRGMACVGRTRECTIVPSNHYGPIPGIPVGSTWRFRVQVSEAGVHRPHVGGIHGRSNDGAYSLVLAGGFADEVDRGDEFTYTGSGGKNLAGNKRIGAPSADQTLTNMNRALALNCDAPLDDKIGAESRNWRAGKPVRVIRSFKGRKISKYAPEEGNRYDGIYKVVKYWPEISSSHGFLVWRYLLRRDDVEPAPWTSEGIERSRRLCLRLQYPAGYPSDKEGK
Assay: EMSA
Conditions: 0.5 uM DNA, compared with hmC, 20 mM HEPES pH 7.9, 100 mM NaCl, 2 mM MgCl2, 2 mM DTT, 0.1% NP-40, 5% glycerol, 30 min on ice, 6% PAGE in 0.25X TBE, recombinant protein, residues 419-648, protein details: His

| Sequence | binding result (5mC at position 15 of strand 1 (hemimethylated CpG), GelRed stain) | binding result (GelRed …) |
| --- | --- | --- |
| GAAGCTGGGACGCGCGCCGGGAGAGTGCAA (double strand) [TET-disf-mC/TET-disf-rev] | binds more weakly |  |
| GAAGCTGGGACGCGCGCCGGGAGAGTGCAA (double strand) [TET-disf/TET-disf-rev] |  | binds more weakly |

The exact form of at least one protein or probe is not confirmed. A weaker result is weaker than the reference pair of the same experiment. At least one verdict rests on a figure or table, not on a statement of the authors. Where a protein sequence is shown, tags need not be part of it.
